Paper PMC11057878

Experiments:
Assay in all cases: co-IP; HEK293T cells co-transfected with Skor and Lhx expression plasmids (pCS2+), lysed 24 h later in 10 mM Tris pH 7.4, 150 mM NaCl, 0.5% NP40; antibody (anti-HA, anti-Myc or anti-Flag) on Dynabeads protein G, 4°C for 2 h, five washes with lysis buffer; immunoblot
Lhx1a (zebrafish) = target: T1, Lhx1a (zebrafish) (UniProt Q90476)
T1 sequence: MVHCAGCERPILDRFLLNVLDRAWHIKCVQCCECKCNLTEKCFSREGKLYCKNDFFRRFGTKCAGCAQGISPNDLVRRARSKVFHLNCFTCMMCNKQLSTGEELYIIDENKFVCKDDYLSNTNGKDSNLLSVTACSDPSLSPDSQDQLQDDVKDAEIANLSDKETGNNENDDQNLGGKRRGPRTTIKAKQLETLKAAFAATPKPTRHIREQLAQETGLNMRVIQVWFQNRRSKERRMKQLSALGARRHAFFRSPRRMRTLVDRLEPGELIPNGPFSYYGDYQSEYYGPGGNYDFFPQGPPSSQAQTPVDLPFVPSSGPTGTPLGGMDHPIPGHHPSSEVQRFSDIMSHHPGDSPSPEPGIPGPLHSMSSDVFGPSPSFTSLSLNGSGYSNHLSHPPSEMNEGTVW

Lhx1b (zebrafish) = target: T2, Lhx1b (zebrafish) (UniProt O13106)
T2 sequence: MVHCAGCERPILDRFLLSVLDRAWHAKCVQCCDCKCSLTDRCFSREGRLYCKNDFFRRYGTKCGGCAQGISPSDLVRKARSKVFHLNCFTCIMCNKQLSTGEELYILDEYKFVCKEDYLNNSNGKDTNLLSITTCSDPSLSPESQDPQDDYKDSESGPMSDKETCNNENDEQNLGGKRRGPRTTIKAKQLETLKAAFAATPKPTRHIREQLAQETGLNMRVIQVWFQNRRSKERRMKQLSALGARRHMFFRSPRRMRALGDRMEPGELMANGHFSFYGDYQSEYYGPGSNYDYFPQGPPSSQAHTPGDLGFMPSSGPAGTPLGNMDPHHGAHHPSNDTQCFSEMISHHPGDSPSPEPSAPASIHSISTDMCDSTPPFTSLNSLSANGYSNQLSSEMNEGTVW

Lhx5 (zebrafish) = target: T3, Lhx5 (zebrafish) (UniProt P52889)
T3 sequence: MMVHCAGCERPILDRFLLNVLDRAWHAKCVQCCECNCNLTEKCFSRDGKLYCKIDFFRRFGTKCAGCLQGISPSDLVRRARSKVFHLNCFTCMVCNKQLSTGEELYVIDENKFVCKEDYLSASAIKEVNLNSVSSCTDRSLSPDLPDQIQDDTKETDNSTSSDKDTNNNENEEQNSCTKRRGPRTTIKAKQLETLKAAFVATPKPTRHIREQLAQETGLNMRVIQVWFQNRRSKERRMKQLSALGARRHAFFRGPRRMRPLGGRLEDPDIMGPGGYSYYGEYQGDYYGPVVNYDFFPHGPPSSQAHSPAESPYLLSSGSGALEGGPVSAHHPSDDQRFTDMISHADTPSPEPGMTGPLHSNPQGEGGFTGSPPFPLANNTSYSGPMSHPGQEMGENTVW

- binding (Lhx1a (zebrafish)): binds
- binding (Lhx1b (zebrafish)): binds
- binding (Lhx5 (zebrafish)): binds
Substance: Skor2 (zebrafish)

Results are given in words; binding and its absence hold for the method and conditions named. Binding seen in cells or lysates may run through a third protein. A result given as binding can be weak or reduced; the word gives no strength.
